Measurements reported in PubChem BioAssay AID1224828 (NIAID, 2016)
This is a random part of about 17,000 deposited reagents. Of all reagents, 762 (4.5%) are marked active. 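Active calls include both raised and lowered p65 entry, mostly lowered; wells with fewer than 50 cells lack a z-score.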 Raw values are not corrected between plates. The numbers tell different reagents against one gene apart.

- Test: 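Regulators linking TLR4 signalling to p65 nuclear translocation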 (primary screen)
- Cells: mouse RAW264.7 G9 macrophage reporter cells (GFP-p65, Tnf promoter-mCherry)
- Reagent: siRNA pool against mouse genes, 100 nM
- Timing: 2 days siRNA transfection, then 40 min LPS before fixation
- Treatment: LPS (Salmonella minnesota R595) at 10 ng/ml
- Measured: 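Imaged p65 nuclear translocation ratio, normalised to the plate median, converted to robust z-scores and averaged across two replicates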
- Direction: p65 translocation robust z-score: higher = more nuclear NF-kappaB p65 after LPS than the plate median; nuclear/cytoplasmic p65 ratio: higher = more nuclear NF-kappaB p65
- Hit rule: 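Called active when z exceeds 3.3 or falls under -1.56 (median of Tlr4 controls), giving activity score of at least 50; no calls for control wells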
- Calls: active = hit (p65 shift raised or lowered); inactive = no clear change

gene knocked down | pool no. | p65 translocation robust z-score | nuclear/cytoplasmic p65 ratio, rep 1 | nuclear/cytoplasmic p65 ratio, rep 2 | low cell count flag | call
Gm6740 | 1 | -0.78 | 1.59 | 1.42 | enough cells to score | inactive
Or8b40 | 1 | 0.52 | 1.62 | 1.24 | enough cells to score | inactive
Cpb1 | 1 | -0.28 | 1.46 | 1.33 | enough cells to score | inactive
Epo | 1 | -0.07 | 1.6 | 1.35 | enough cells to score | inactive
Bhlhe40 | 1 | 0.45 | 1.62 | 1.74 | enough cells to score | inactive
Atad3a | 1 | -0.97 | 1.33 | 1.51 | enough cells to score | inactive
Hdac5 | 1 | -1.78 | 1.15 | 1.19 | enough cells to score | active
Dync1i2 | 1 | -1.71 | 1.24 | 1.16 | enough cells to score | active
Adam22 | 1 | 0.46 | 1.7 | 1.68 | enough cells to score | inactive
Cadm2 | 1 | -1.34 | 1.35 | 1.26 | enough cells to score | inactive
Or52x1 | 1 | -0.25 | 1.41 | 1.27 | enough cells to score | inactive
Ift56 | 1 | 0.27 | 1.43 | 1.62 | enough cells to score | inactive
Vmn2r-ps11 | 1 | 0.06 | 1.36 | 1.22 | enough cells to score | inactive
Thap4 | 1 | 0.32 | 1.25 | 1.23 | enough cells to score | inactive
Trappc5 | 1 | -0.14 | 1.32 | 1.2 | enough cells to score | inactive
Sike1 | 1 | – | 1.48 | 1.45 | fewer than 50 cells per well; well left out of scoring | inactive
Sike1 | 2 | – | 1.32 | 1.08 | fewer than 50 cells per well; well left out of scoring | inactive
Lyset | 1 | -1.7 | 1.28 | 1.35 | enough cells to score | active
Tdrd12 | 1 | – | 1.27 | 1.09 | fewer than 50 cells per well; well left out of scoring | inactive
Eif3d | 1 | -1.17 | 1.33 | 1.2 | enough cells to score | inactive
Sstr3 | 1 | – | 1.43 | 1.65 | fewer than 50 cells per well; well left out of scoring | inactive
Or1e23 | 1 | 1.7 | 1.86 | 1.62 | enough cells to score | inactive
Txlng | 1 | – | 1.08 | 1.07 | fewer than 50 cells per well; well left out of scoring | inactive
U2af1 | 1 | – | 1.25 | 1.17 | fewer than 50 cells per well; well left out of scoring | inactive
